Chains of the proteins cited; added tags and fusions are not shown.
UniProt Q92830, whole entry, looked up: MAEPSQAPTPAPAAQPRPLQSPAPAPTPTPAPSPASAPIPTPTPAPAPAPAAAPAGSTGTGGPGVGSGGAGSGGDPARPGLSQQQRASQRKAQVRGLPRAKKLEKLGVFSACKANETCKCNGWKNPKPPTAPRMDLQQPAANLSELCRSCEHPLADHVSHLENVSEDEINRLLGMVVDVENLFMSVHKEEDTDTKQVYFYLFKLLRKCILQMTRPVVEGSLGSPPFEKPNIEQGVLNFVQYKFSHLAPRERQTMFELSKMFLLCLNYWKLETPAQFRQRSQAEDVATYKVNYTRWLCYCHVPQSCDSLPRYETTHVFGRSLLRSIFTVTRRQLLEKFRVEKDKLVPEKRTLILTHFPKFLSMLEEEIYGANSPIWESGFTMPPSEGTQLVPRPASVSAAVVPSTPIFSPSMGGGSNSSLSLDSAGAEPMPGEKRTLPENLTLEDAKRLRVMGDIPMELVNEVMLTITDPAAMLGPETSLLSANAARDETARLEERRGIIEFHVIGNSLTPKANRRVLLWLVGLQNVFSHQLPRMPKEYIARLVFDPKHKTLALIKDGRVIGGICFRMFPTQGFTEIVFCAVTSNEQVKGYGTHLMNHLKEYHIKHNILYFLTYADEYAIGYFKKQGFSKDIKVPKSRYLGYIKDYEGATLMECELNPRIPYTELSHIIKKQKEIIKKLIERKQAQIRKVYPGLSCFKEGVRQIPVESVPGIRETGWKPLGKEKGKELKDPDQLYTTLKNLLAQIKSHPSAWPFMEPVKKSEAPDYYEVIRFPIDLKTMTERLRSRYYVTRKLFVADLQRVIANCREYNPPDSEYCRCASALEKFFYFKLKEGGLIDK

The whole screen tested about 390,000 compounds, of which about 820 (0.21%) were called active. This list was built around the results that the source calls inconclusive (neither active nor inactive); the mix of calls is not that of the screen. Calls follow the shape of the dose curve; as a rule, active = well fitted inhibition curve with a large enough effect; inconclusive = small, poorly fitted or top-dose-only effect, or another doubt; inactive = no such curve, though single readings can be large or run the other way. Potencies beside an inconclusive call are fits to weak or partial responses and may not hold up.
Each molecule was assayed against Histone acetyltransferase KAT2A (Homo sapiens) (UniProt Q92830) (assay: qHTS Assay for Inhibitors of GCN5L2). Conditions: GCN5L2 HAT assay, ThioGlo1 CoA-SH fluorescence; activity change, negative = inhibition: at 58.9 µM (top of the series) unless noted.
Outline: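 qHTS, 1536-well. 20nM enzyme, pH 7.5 HEPES/EDTA/Tween-20 buffer; 15 min compound preinc., RT. Start: 75uM H3(1-25), 70uM AcCoA, 50uM ThioGlo1. Read Ex340/Em540 at t=0 (autofluorescence flag) and t=20 min.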
With `CC(C)(O)C#Cc1ccc(CN2CCN(Cc3ccccc3)C(CCO)C2)s1` (stereo unspecified) the Potency was inconclusive: 22.4 µM [inhibitor, partial curve].
In the case of `O=C(N/N=C/c1cc(Br)cs1)c1ccc2c(c1)OCCO2`, the Potency is reported as inconclusive: 0.158 µM [inhibitor, full curve, poor fit].
For `CCOc1ccc(CNC(=O)c2ccccc2NC(=O)C2=CSCCO2)cc1`, the Potency was inconclusive: 5.62 µM [inhibitor, full curve, poor fit].
`COc1cc(NC(=O)CN2CCN(C(=O)C3CCCO3)CC2)c(OC)cc1Cl` (stereo unspecified) was tested, and the Potency was inconclusive: 6.31 µM [inhibitor, single point].
`CC(=O)c1cc2c(cc1N/C(=N/S(=O)(=O)c1ccc(C)cc1)c1ccc(F)cc1)OCO2` was tested, and the “activity change, negative = inhibition” value was inactive: -0.991%.
In the case of `O=C(NCCCCc1ccccc1)c1cc([N+](=O)[O-])cc([N+](=O)[O-])c1`, the Potency is reported as inconclusive: 39.8 µM [inhibitor, single point].
In the case of `CCC1=C(OC(=O)N(CC)CC)N2C(=O)OC(=NCC(=O)OC)[C@]2(Cc2ccccc2)[C@H]2C1=CC[C@H]1C(=O)N(C)C(=O)[C@H]12`, the Potency is reported as inconclusive: 2.82 µM [inhibitor, partial curve, poor fit].
For `Cc1ccc2c(c1C)NC(=O)C21N2CCCC2C(C(=O)c2ccc3ccccc3c2)C12C(=O)Nc1ccccc12` (stereo unspecified), the Potency was inconclusive: 39.8 µM [inhibitor, single point].
`COc1ccc(-c2csc(NC(=O)C3CCN(C(=O)c4ccc(F)cc4)CC3)n2)cc1OC` was tested, and the Potency was inconclusive: 1.78 µM [inhibitor, full curve].
`COc1ccc(-n2c(=O)c(CCC(=O)N3CCN(c4ccccc4O)CC3)nc3ccccc32)cc1` was tested, and the Potency was inconclusive: 35.5 µM [inhibitor, single point].
With `COc1ccc(C2C(C#N)=C(N)N(c3ccccc3)C3=C2C(=O)CCC3)cc1Cn1cc([N+](=O)[O-])cn1` (stereo unspecified) the Potency was inconclusive: 1 µM [inhibitor, full curve, poor fit].
For `COC(=O)c1cccc(-n2c(CCC(=O)O)ccc2-c2cccs2)c1`, the Potency was inconclusive: 0.562 µM [inhibitor, full curve].
`CC1(C)CC(=O)C(C(C2=C(O)CC(C)(C)CC2=O)c2ccc(Br)s2)C(=O)C1` (stereo unspecified) was tested, and the “activity change, negative = inhibition” value was inactive: -6.6%.
With `O=C(c1cc2ccc3cccnc3c2[nH]1)N1CCN(c2ccccc2)CC1` the “activity change, negative = inhibition” value was inactive: -19%.
With `O=c1n(Cc2ccc(Cl)cc2)c2sc3c(c2c2ncnn12)CCCC3` the “activity change, negative = inhibition” value was inactive: -16.9%.
In the case of `Cc1cccc(C)c1-n1cccc1/C=C1/C(=N)N2C(=NC1=O)SN=C2S(C)(=O)=O`, the Potency is reported as inconclusive: 39.8 µM [inhibitor, single point].
For `CCCn1c(/N=C/c2ccc3c(c2)OCO3)nc2ccccc21`, the activity change, negative = inhibition was inconclusive: -87.9% [inhibitor] [at 0.501 µM].
With `CN(C(=O)Cn1cc(S(=O)(=O)Cc2ccccc2Cl)c2ccccc21)c1ccccc1` the Potency was inconclusive: 15.8 µM [inhibitor, partial curve].
`Cc1nc2ccc(NC(=S)N3CCCC3)cc2nc1C` was tested, and the “activity change, negative = inhibition” value was inactive: -4.95%.
`C=CCc1c(C)nc(N2CCSCC2)[nH]c1=O` was tested, and the “activity change, negative = inhibition” value was inactive: -3.56%.
In the case of `CCCCn1nnnc1NCc1cccs1`, the Potency is reported as inconclusive: 8.91 µM [inhibitor, single point].
In the case of `CCOC(=O)c1sc(NC(=O)c2ccncc2)c(C#N)c1C`, the Potency is reported as inconclusive: 28.2 µM [inhibitor, single point].
`CCOC(=O)c1sc(NC(=O)C2c3ccccc3Oc3ccccc32)c(C(=O)OCC)c1C` was tested, and the Potency was inconclusive: 3.55 µM [inhibitor, full curve, poor fit].
In the case of `COc1ccc(CN2CCN(C(=O)C3CC(=O)N(C4CCCCCC4)C3)CC2)c(OC)c1OC` (stereo unspecified), the Potency is reported as inconclusive: 0.447 µM [inhibitor, full curve, poor fit].
For `CCOc1ccc(CCNC(=O)COC(=O)c2cccc(S(=O)(=O)N3CCCCC3)c2)cc1OCC`, the Potency was inconclusive: 2.24 µM [inhibitor, partial curve].
With `Cc1c(NC(=O)CC(=O)Nc2c(C)n(C)n(-c3ccccc3)c2=O)c(=O)n(-c2ccccc2)n1C` the Potency was inconclusive: 0.794 µM [inhibitor, single point].
In the case of `Cc1nc2scc(C)n2c(=O)c1S(=O)(=O)NC(C)c1ccccc1` (stereo unspecified), the “activity change, negative = inhibition” value is reported as inactive: -13.2%.
In the case of `Cc1c(NC(=O)CN2CC(C)OC(C)C2)c(=O)n(-c2ccccc2)n1C` (stereo unspecified), the “activity change, negative = inhibition” value is reported as inactive: -4.58%.
`CC1=NN(C(=O)c2ccccc2Br)C(O)(c2ccc(Cl)cc2)C1` (stereo unspecified) was tested, and the Potency was inconclusive: 39.8 µM [inhibitor, single point].
For `CCOC(=O)CN1CC23C=CC(O2)C(C(=O)NC2CCCC2)C3C1=O` (stereo unspecified), the Potency was inconclusive: 39.8 µM [inhibitor, single point].
For `O=C(CCN1C(=O)C2CCCCC2C1=O)N1CCN(S(=O)(=O)c2cccc(F)c2)CC1` (stereo unspecified), the Potency was inconclusive: 17.8 µM [inhibitor, partial curve].
For `Cc1nc2ccccc2n1Cc1ccccc1Br`, the “activity change, negative = inhibition” value was inactive: -0.109%.
For `CC(C)c1ccc(NC(=O)C2CCCN(S(=O)(=O)c3ccc4c(c3)C(C)(C)C(=O)N4C)C2)cc1` (stereo unspecified), the Potency was inconclusive: 39.8 µM [inhibitor, single point].
With `O=C(COC(=O)c1ccc([N+](=O)[O-])s1)NNC(=O)c1ccccc1` the “activity change, negative = inhibition” value was inactive: -4.16%.
With `COc1cccc(C2C3=C(Nc4[nH]n(-c5ccccc5)c(=O)c42)c2ccccc2C3=O)c1` (stereo unspecified) the “activity change, negative = inhibition” value was inactive: 4.12%.
With `CN1CCN(S(=O)(=O)c2cccs2)CC1` the Potency was inconclusive: 31.6 µM [inhibitor, single point].
`CCSc1ccccc1C(=O)Nc1ccc(S(=O)(=O)NC(C)=O)cc1` was tested, and the Potency was active: 17.8 µM.
In the case of `Cc1ccccc1C[C@H](C(=O)O)N1C(=O)c2ccc(C(=O)O)cc2C1=O`, the “activity change, negative = inhibition” value is reported as inactive: -0.51%.
`CCCCn1c(=S)[nH]c2ccc(N3CCOCC3)cc2c1=O` was tested, and the Potency was inconclusive: 14.1 µM [inhibitor, partial curve].
For `O=C(Nn1c(Cc2ccccc2)nc2ccccc2c1=O)c1c(O)c2cccc3c2n(c1=O)CCC3`, the “activity change, negative = inhibition” value was inactive: 24.6%.
In the case of `Cc1ccc(C(=O)c2oc3ccccc3c2NC(=O)COc2ccc(C(C)C)cc2)cc1`, the “activity change, negative = inhibition” value is reported as inactive: 2.55%.
With `CC(C)(C)OC(=O)NCc1ccc(CNC(=O)c2[nH]cnc2C(=O)N[C@@H](Cc2ccccc2)C(=O)OC(C)(C)C)cc1` the Potency was inconclusive: 0.891 µM [inhibitor, full curve].
In the case of `C[C@@H]1[C@H](O)C[C@@]23COC(=O)C2=CCCC3[C@@]1(C)CCC1COC(=O)C1` (stereo partly specified), the Potency is reported as inconclusive: 5.01 µM [inhibitor, full curve, poor fit].
`O=C(c1ccc(COc2ccc(Cl)cc2Cl)o1)N1CCCC1` was tested, and the “activity change, negative = inhibition” value was inactive: -19.1%.
For `O=C(NC(=S)Nc1ccccc1N1CCCC1)c1ccco1`, the “activity change, negative = inhibition” value was inactive: -19.8%.
In the case of `COC(=O)c1ccc(COc2ccc(C3C4=C(CCCC4=O)Nc4onc(C)c43)cc2)cc1` (stereo unspecified), the Potency is reported as inconclusive: 31.6 µM [inhibitor, single point].
In the case of `CCC(NC(=O)c1cc(COc2c(F)cccc2F)on1)c1ccncc1` (stereo unspecified), the Potency is reported as inconclusive: 0.1 µM [inhibitor, full curve, poor fit].
In the case of `Cc1ccc(NC(=O)c2cc(S(=O)(=O)N3CCc4ccccc43)cn2C)c(Cl)c1`, the Potency is reported as inconclusive: 15.8 µM [inhibitor, partial curve].
In the case of `Cc1nnc(N=c2ssnc2Cl)o1`, the Potency is reported as active: 2.82 µM.
For `CC(C)Oc1ccc(CNC(=O)C2CCN(C(=O)N3CCOc4ccccc43)CC2)cc1`, the Potency was inconclusive: 35.5 µM [inhibitor, single point].
For `CCOc1cc(NC(=S)NCc2ccco2)c(OCC)cc1NC(=O)CC`, the Potency was inconclusive: 7.94 µM [inhibitor, single point].
In the case of `Cn1c(SCc2cc(=O)n3cc(Br)ccc3n2)nnc1C1COc2ccccc2O1` (stereo unspecified), the “activity change, negative = inhibition” value is reported as inactive: -13.8%.
For `CCc1ccc(N2CCN(CCNC(=O)Nc3ccccc3)CC2)cc1`, the Potency was inconclusive: 0.282 µM [inhibitor, full curve, poor fit].
In the case of `COCCC(=O)N1CCC(Oc2ccc(C(=O)N3C[C@@H](C)O[C@@H](C)C3)cc2)CC1`, the Potency is reported as inconclusive: 4.47 µM [inhibitor, full curve, poor fit].
In the case of `COc1ccccc1CC(=O)Nc1cc(C)ccn1`, the Potency is reported as inconclusive: 7.08 µM [inhibitor, single point].
With `COc1ccc(-n2c(=O)c(CCc3ccccc3)nc3cncnc32)cc1` the “activity change, negative = inhibition” value was inactive: -7.69%.
For `CC(=O)NCCCc1nc2ccccc2n1Cc1c(F)cccc1Cl`, the Potency was inconclusive: 1 µM [inhibitor, full curve, poor fit].
In the case of `O=C1CCCN1CCCNS(=O)(=O)c1ccc(Br)s1`, the Potency is reported as inconclusive: 0.794 µM [inhibitor, full curve, poor fit].
In the case of `COc1cc(C2c3sc(=O)[nH]c3SC3C(=O)N(c4ccc(Br)cc4)C(=O)C32)ccc1O` (stereo unspecified), the Potency is reported as inconclusive: 3.16 µM [inhibitor, full curve].
For `CC(=O)Nc1ccc(S(=O)(=O)Oc2cccc(N3C(=O)C4CCCCC4C3=O)c2)cc1` (stereo unspecified), the Potency was inconclusive: 5.01 µM [inhibitor, single point].
`Cc1noc(C)c1CSCC(=O)Nc1nc2ccc(S(C)(=O)=O)cc2s1` was tested, and the Potency was inconclusive: 3.55 µM [inhibitor, single point].
For `Cc1ccc(CN(Cc2ccco2)C(=O)c2ccc(OCC(C)C)cc2)cc1`, the “activity change, negative = inhibition” value was inactive: -4.5%.
In the case of `CCCn1c(=O)c2c(nc3n2CCN3Cc2ccco2)n(C)c1=O`, the “activity change, negative = inhibition” value is reported as inactive: -8.51%.
`CC(C)(C)c1ccc(S(=O)(=O)N2CCN(CC(=O)N3CC(=O)Nc4ccccc43)CC2)cc1` was tested, and the Potency was inconclusive: 7.08 µM [inhibitor, single point].
With `CCOC(=O)N1CCN(C(=O)C2CCCN(Cc3nc(-c4ccc(Cl)cc4)oc3C)C2)CC1` (stereo unspecified) the “activity change, negative = inhibition” value was inactive: 0.966%.
With `COc1cc2ccccc2cc1C(=O)N1CCc2ccccc21` the Potency was inconclusive: 0.891 µM [inhibitor, full curve, poor fit].

Reference: PubChem BioAssay AID504327 (National Center for Advancing Translational Sciences (NCATS), 2011)
% is scaled to controls: 0 for no effect and ±100 for the full control effect; potency is read from the fitted curve at half-maximal effect.
